Data from patent US9284362B2, “α/β-peptide mimics of Z-domain peptides” (Wisconsin Alumni Research Foundation, priority 2014, dated 2016).
For at least one compound, name, drawing or mass did not settle the structure. Where no end group is shown, it is not given here.

Biological target: T1, VEGF (Homo sapiens, UniProt P15692)
T1 construct: made in house
T1 sequence (P15692 27-191 isoform P15692-4): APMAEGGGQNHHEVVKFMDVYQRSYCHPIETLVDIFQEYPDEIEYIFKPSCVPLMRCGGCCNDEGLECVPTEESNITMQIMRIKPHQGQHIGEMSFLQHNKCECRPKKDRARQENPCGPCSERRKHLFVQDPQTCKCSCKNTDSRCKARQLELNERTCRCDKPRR
Test: VEGF competition fluorescence polarization (FP) assay
Assay type: binding

| Substance | Ki (Table 5, early mimics, FP assay run once) [µM] | Ki (Table 7, positions 1-6 and disulfide links) [µM] | Ki (VEGF binding, competition FP assay (Table 1)) [µM] |
| --- | --- | --- | --- |
| Ac-AELYRAIAEIVRADAEA-NH2 [Mini-Z-1 H2 4] | > 50 |  |  |
| VDNKFNKEQHNARAIEAALDPNLNDQQFHAKIWSIIDD-NH2 [α-VEGF-1] |  | > 50 | > 100 |
